Test results as given in PMC2859746.

T1: GST-RB, large pocket of pRB (amino acids 379 to 928), wild type (human) (UniProt P06400)
T1 sequence: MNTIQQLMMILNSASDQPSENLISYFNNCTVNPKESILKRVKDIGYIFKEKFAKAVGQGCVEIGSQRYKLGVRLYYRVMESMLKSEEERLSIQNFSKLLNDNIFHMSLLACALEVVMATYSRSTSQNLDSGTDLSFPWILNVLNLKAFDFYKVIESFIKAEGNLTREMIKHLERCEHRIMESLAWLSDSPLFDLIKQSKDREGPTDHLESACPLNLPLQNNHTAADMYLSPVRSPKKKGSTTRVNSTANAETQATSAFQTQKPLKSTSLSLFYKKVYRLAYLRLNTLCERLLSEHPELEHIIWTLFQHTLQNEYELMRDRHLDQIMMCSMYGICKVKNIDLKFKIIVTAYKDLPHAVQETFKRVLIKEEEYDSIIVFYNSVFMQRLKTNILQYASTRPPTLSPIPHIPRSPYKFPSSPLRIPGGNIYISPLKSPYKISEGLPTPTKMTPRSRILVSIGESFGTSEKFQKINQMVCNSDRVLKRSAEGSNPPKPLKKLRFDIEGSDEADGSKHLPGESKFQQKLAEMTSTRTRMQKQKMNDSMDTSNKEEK


Key:
[1] = target: T1, GST-RB, large pocket of pRB (amino acids 379 to 928), wild type (human); experiment: pull-down; recombinant GST-RB proteins incubated with whole-cell extracts from C33A cells transfected with CMV-HA-E2F3 and CMV-HA-DP1, or CMV-TAg; bound proteins detected by western blotting (12CA5 or PAb419); only the target purified
[2] = target: Simian virus 40 TAg (CMV-TAg) (Simian virus 40); experiment: co-IP; C33A cells co-transfected with CMV-RB constructs and CMV-TAg or CMV-HA-E2F3 and CMV-HA-DP1; precipitation with PAb419 (TAg) or 12CA5 (HA); bound pRB detected by western blotting with G3-245

Molecule | binding [1] | binding [2]
Simian virus 40 TAg (CMV-TAg) | binds | –
retinoblastoma protein (pRB), full-length wild type (CMV-RB) (protein, UniProt P06400 1-928) MPPKTPRKTAATAAAAAAEPPAPPPPPPPEEDPEQDSGPEDLPLVRLEFEETEEPDFTALCQKLKIPDHVRERAWLTWEKVSSVDGVLGGYIQKKKELWGICIFIAAVDLDEMSFTFTELQKNIEISVHKFFNLLKEIDTSTKVDNAMSRLLKKYDVLFALFSKLERTCELIYLTQPSSSISTEINSALVLKVSWITFLLAKGEVLQMEDDLVISFQLMLCVLDYFIKLSPPMLLKEPYKTAVIPINGSPRTPRRGQNRSARIAKQLENDTRIIEVLCKEHECNIDEVKNVYFKNFIPFMNSLGLVTSNGLPEVENLSKRYEEIYLKNKDLDARLFLDHDKTLQTDSIDSFETQRTPRKSNLDEEVNVIPPHTPVRTVMNTIQQLMMILNSASDQPSENLISYFNNCTVNPKESILKRVKDIGYIFKEKFAKAVGQGCVEIGSQRYKLGVRLYYRVMESMLKSEEERLSIQNFSKLLNDNIFHMSLLACALEVVMATYSRSTSQNLDSGTDLSFPWILNVLNLKAFDFYKVIESFIKAEGNLTREMIKHLERCEHRIMESLAWLSDSPLFDLIKQSKDREGPTDHLESACPLNLPLQNNHTAADMYLSPVRSPKKKGSTTRVNSTANAETQATSAFQTQKPLKSTSLSLFYKKVYRLAYLRLNTLCERLLSEHPELEHIIWTLFQHTLQNEYELMRDRHLDQIMMCSMYGICKVKNIDLKFKIIVTAYKDLPHAVQETFKRVLIKEEEYDSIIVFYNSVFMQRLKTNILQYASTRPPTLSPIPHIPRSPYKFPSSPLRIPGGNIYISPLKSPYKISEGLPTPTKMTPRSRILVSIGESFGTSEKFQKINQMVCNSDRVLKRSAEGSNPPKPLKKLRFDIEGSDEADGSKHLPGESKFQQKLAEMTSTRTRMQKQKMNDSMDTSNKEEK | – | binds

No constants are given. Whether binding was seen depends on the method and setting. Binding seen in cells or lysates may run through a third protein. Binding can be weak; no strength is given. For some assays here: Sequences can lack the tags named with a protein.
